This note sets out measurements from the supplement of paper PMC7238544.

± gives the standard deviation of the averaged measurements. The list shows a part of the results. The data scatter; read single values as rough.

Assay [1] deals with hAMSC donor 1. The experiment in a line: Hoechst total cell count ratio vs vehicle control; higher = more cells (less toxicity).
Assay [2] has as its system hAMSC donor 2. The assay is described as above.
Assay [3] relates to hAMSC donor 1. The experiment in a line: transgenic luciferase activity (RLU/mg protein) fold change vs vehicle control (ratio); higher = more transgene expression.
Assay [4] has as its system hAMSC donor 1. The experiment in a line: transfection efficiency (EGFP+ cells / Hoechst count) fold change vs vehicle control (ratio); higher = enhanced transfection.
The test system of assay [5] is hAMSC donor 2. The description is as above.
The subject of assay [6] is hAMSC donor 2. Description: transgenic luciferase activity (RLU/mg protein) fold change vs vehicle control (ratio); hAMSC are human adipose-derived mesenchymal stem cells given an EGFP-luciferase plasmid by lipofection; higher = more transgene expression.
Setting [7] is: priming compound concentration 0.2 µM.
Where [8] appears, read: priming compound concentration 1.7 µM.
Setting [9] is: priming compound concentration 13 µM.

As to `C=C1C[C@@H]2[C@H](CC[C@]3(C)C(=O)CC[C@@H]23)[C@@]2(C)C=CC(=O)C=C12` [Exemestane], the “Hoechst total cell count ratio” value in assay [1] (setting [7]) amounted to 1.48 ± 0.13; in assay [1] (setting [8]), 1.49 ± 0.086; in assay [1] (setting [9]), 1.13 ± 0.05; in assay [2] (setting [7]), 1.25 ± 0.087; in assay [2] (setting [8]), 1.07 ± 0.15; in assay [2] (setting [9]), 1.18 ± 0.16. The transgenic luciferase activity in assay [3] (setting [7]) came to 0.935 ± 0.22. Besides, the transfection efficiency came to 0.954 ± 0.28 in assay [4] (setting [7]); 0.995 ± 0.057 in assay [4] (setting [8]); 1.09 ± 0.042 in assay [4] (setting [9]); 0.985 ± 0.06 in assay [5] (setting [7]); 1.05 ± 0.11 in assay [5] (setting [8]); 1.14 ± 0.042 in assay [5] (setting [9]).
Regarding `O=c1c2ccccc2[se]n1-c1ccccc1` [Ebselen], the “Hoechst total cell count ratio” value was found to be 1.09 ± 0.03 in assay [1] (setting [7]); 1.13 ± 0.1 in assay [1] (setting [8]); 1.04 ± 0.15 in assay [1] (setting [9]); 0.925 ± 0.15 in assay [2] (setting [7]); 1.02 ± 0.12 in assay [2] (setting [8]); 1.05 ± 0.34 in assay [2] (setting [9]). Also, the transgenic luciferase activity in assay [3] (setting [7]) worked out at 0.921 ± 0.12; in assay [6] (setting [8]), 0.586 ± 0.084. Besides, the transfection efficiency was determined as 0.972 ± 0.04 in assay [4] (setting [7]); 0.61 ± 0.15 in assay [4] (setting [8]); 0.865 ± 0.29 in assay [4] (setting [9]); 0.988 ± 0.17 in assay [5] (setting [7]); 0.883 ± 0.058 in assay [5] (setting [8]); 0.969 ± 0.25 in assay [5] (setting [9]).
`CN1[C@@H]2CC[C@H]1C[C@@H](OC(=O)C(CO)c1ccccc1)C2` (some centres undefined) [Atropine]: the “Hoechst total cell count ratio” value came to 1.22 ± 0.17 in assay [1] (setting [7]); 1.27 ± 0.25 in assay [1] (setting [8]); 1.3 ± 0.097 in assay [1] (setting [9]); 1.12 ± 0.15 in assay [2] (setting [7]); 1.03 ± 0.085 in assay [2] (setting [8]); 1.25 ± 0.13 in assay [2] (setting [9]). The transgenic luciferase activity in assay [3] (setting [9]) was 0.815 ± 0.16; in assay [6] (setting [7]), 0.741 ± 0.15; in assay [6] (setting [9]), 0.814 ± 0.47. The transfection efficiency in assay [4] (setting [7]) was 0.992 ± 0.12; in assay [4] (setting [8]), 1.03 ± 0.08; in assay [4] (setting [9]), 1.05 ± 0.22; in assay [5] (setting [7]), 1.24 ± 0.34; in assay [5] (setting [8]), 1.11 ± 0.11; in assay [5] (setting [9]), 1 ± 0.043.
For `CC(O)(CS(=O)(=O)c1ccc(F)cc1)C(=O)Nc1ccc(C#N)c(C(F)(F)F)c1` (centres undefined) [Bicalutamide], the “Hoechst total cell count ratio” value in assay [1] (setting [7]) was 1.29 ± 0.15; in assay [1] (setting [8]), 1.3 ± 0.26; in assay [1] (setting [9]), 1.28 ± 0.028; in assay [2] (setting [7]), 0.835 ± 0.15; in assay [2] (setting [8]) it was 1.33 ± 0.3; in assay [2] (setting [9]) it was 2.73 ± 0.66. Also, the transgenic luciferase activity amounted to 1.08 ± 0.39 in assay [3] (setting [8]), 0.464 ± 0.19 in assay [6] (setting [7]), 0.794 ± 0.058 in assay [6] (setting [8]) and 0.126 ± 0.041 in assay [6] (setting [9]). The transfection efficiency in assay [4] (setting [7]) was 1.03 ± 0.16; in assay [4] (setting [8]), 1.19 ± 0.74; in assay [4] (setting [9]), 0.687 ± 0.068; in assay [5] (setting [7]), 1.19 ± 0.41; in assay [5] (setting [8]), 1.01 ± 0.31; in assay [5] (setting [9]) it was 0.857 ± 0.046.
Take `CC[C@@H]1/C=C/C=C/C[C@H](C)[C@H](O)[C@](C)(O)C(=O)[C@H](C)[C@@H](O)[C@H](C)C(=O)[C@H](C)[C@@H](O)[C@H](C)/C=C/C(=O)O[C@H]2[C@@H](C)[C@@H](CC1)O[C@@]1(CC[C@@H](C)[C@@H](C[C@H](C)O)O1)[C@@H]2C` [Oligomycin A]: the “Hoechst total cell count ratio” value was found to be 0.88 ± 0.081 in assay [1] (setting [7]); 0.802 ± 0.022 in assay [1] (setting [8]); 0.784 ± 0.12 in assay [1] (setting [9]); 1.29 ± 0.24 in assay [2] (setting [7]); 1.25 ± 0.097 in assay [2] (setting [8]); 1.32 ± 0.23 in assay [2] (setting [9]). In addition, the values for the transgenic luciferase activity in assay [3] (setting [8]), in assay [6] (setting [7]) and in assay [6] (setting [8]) were 1.57 ± 0.8, 0.942 ± 0.15 and 1 ± 0.078, respectively. The transfection efficiency stood at 1.2 ± 0.45 in assay [4] (setting [7]); 1.44 ± 0.41 in assay [4] (setting [8]); 1.06 ± 0.45 in assay [4] (setting [9]); 0.993 ± 0.14 in assay [5] (setting [7]); 0.874 ± 0.15 in assay [5] (setting [8]); 0.608 ± 0.05 in assay [5] (setting [9]).
Consider `CCN(C(C)=O)c1cccc(-c2ccnc3c(C#N)cnn23)c1` [Zaleplon], for which the “Hoechst total cell count ratio” value in assay [1] (setting [7]) worked out at 1.33 ± 0.12; in assay [1] (setting [8]), 1.19 ± 0.12; in assay [1] (setting [9]), 1.3 ± 0.071; in assay [2] (setting [7]), 1.13 ± 0.27; in assay [2] (setting [8]), 1.23 ± 0.055; in assay [2] (setting [9]), 1.32 ± 0.12. For the same compound, the transgenic luciferase activity in assay [3] (setting [9]) turned out to be 0.642 ± 0.29. The transfection efficiency in assay [4] (setting [7]) amounted to 0.867 ± 0.12; in assay [4] (setting [8]), 0.973 ± 0.36; in assay [4] (setting [9]), 0.625 ± 0.23; in assay [5] (setting [7]), 1.19 ± 0.23; in assay [5] (setting [8]), 0.987 ± 0.22; in assay [5] (setting [9]), 0.908 ± 0.1.
On to `CC[C@]1(O)CC[C@H]2[C@@H]3CCC4=CCCC[C@@H]4[C@H]3CC[C@@]21C` [Ethylestrenol], for which the “Hoechst total cell count ratio” value in assay [1] (setting [7]) came to 1.23 ± 0.046; in assay [1] (setting [8]) it was 1.33 ± 0.13; in assay [1] (setting [9]), 1.28 ± 0.079; in assay [2] (setting [7]) it was 1.11 ± 0.11; in assay [2] (setting [8]), 1.27 ± 0.18; in assay [2] (setting [9]), 1.25 ± 0.11. The transgenic luciferase activity stood at 1.68 ± 0.46 in assay [3] (setting [7]) and 1.22 ± 0.31 in assay [6] (setting [7]). Also, the transfection efficiency in assay [4] (setting [7]) turned out to be 0.875 ± 0.14; in assay [4] (setting [8]), 0.894 ± 0.31; in assay [4] (setting [9]), 1.54 ± 0.5; in assay [5] (setting [7]) it was 1.52 ± 0.39; in assay [5] (setting [8]) it was 0.911 ± 0.2; in assay [5] (setting [9]), 1.06 ± 0.23.
Regarding `CN1C(=O)CN=C(c2ccccc2)c2cc([N+](=O)[O-])ccc21` [Nimetazepam], the “Hoechst total cell count ratio” value in assay [1] (setting [7]) turned out to be 1.18 ± 0.21; in assay [1] (setting [8]), 1.2 ± 0.28; in assay [1] (setting [9]) it was 1.01 ± 0.069; in assay [2] (setting [7]) it was 1.13 ± 0.38; in assay [2] (setting [8]), 1.48 ± 0.05; in assay [2] (setting [9]), 0.695 ± 0.16. For the same compound, the transgenic luciferase activity in assay [3] (setting [7]) came out at 1.88 ± 1.1; in assay [6] (setting [8]), 0.437 ± 0.11. For the same compound, the transfection efficiency turned out to be 0.975 ± 0.24 in assay [4] (setting [7]); 0.953 ± 0.17 in assay [4] (setting [8]); 1.15 ± 0.42 in assay [4] (setting [9]); 1.27 ± 0.27 in assay [5] (setting [7]); 0.999 ± 0.1 in assay [5] (setting [8]); 1.26 ± 0.082 in assay [5] (setting [9]).
